Source: the supplement of paper PMC11732987, “Enantioselective OTUD7B fragment discovery through chemoproteomics screening and high-throughput optimisation” (Communications Chemistry, 2025)
The list shows a part of the results. The data scatter; read single values as rough.

Chains of the proteins cited; added tags and fusions are not shown. Lines headed by an entry give the natural chain unless they say otherwise; changes in a name come on top. Residues count along the entry.
UniProt Q96L91, whole entry, looked up: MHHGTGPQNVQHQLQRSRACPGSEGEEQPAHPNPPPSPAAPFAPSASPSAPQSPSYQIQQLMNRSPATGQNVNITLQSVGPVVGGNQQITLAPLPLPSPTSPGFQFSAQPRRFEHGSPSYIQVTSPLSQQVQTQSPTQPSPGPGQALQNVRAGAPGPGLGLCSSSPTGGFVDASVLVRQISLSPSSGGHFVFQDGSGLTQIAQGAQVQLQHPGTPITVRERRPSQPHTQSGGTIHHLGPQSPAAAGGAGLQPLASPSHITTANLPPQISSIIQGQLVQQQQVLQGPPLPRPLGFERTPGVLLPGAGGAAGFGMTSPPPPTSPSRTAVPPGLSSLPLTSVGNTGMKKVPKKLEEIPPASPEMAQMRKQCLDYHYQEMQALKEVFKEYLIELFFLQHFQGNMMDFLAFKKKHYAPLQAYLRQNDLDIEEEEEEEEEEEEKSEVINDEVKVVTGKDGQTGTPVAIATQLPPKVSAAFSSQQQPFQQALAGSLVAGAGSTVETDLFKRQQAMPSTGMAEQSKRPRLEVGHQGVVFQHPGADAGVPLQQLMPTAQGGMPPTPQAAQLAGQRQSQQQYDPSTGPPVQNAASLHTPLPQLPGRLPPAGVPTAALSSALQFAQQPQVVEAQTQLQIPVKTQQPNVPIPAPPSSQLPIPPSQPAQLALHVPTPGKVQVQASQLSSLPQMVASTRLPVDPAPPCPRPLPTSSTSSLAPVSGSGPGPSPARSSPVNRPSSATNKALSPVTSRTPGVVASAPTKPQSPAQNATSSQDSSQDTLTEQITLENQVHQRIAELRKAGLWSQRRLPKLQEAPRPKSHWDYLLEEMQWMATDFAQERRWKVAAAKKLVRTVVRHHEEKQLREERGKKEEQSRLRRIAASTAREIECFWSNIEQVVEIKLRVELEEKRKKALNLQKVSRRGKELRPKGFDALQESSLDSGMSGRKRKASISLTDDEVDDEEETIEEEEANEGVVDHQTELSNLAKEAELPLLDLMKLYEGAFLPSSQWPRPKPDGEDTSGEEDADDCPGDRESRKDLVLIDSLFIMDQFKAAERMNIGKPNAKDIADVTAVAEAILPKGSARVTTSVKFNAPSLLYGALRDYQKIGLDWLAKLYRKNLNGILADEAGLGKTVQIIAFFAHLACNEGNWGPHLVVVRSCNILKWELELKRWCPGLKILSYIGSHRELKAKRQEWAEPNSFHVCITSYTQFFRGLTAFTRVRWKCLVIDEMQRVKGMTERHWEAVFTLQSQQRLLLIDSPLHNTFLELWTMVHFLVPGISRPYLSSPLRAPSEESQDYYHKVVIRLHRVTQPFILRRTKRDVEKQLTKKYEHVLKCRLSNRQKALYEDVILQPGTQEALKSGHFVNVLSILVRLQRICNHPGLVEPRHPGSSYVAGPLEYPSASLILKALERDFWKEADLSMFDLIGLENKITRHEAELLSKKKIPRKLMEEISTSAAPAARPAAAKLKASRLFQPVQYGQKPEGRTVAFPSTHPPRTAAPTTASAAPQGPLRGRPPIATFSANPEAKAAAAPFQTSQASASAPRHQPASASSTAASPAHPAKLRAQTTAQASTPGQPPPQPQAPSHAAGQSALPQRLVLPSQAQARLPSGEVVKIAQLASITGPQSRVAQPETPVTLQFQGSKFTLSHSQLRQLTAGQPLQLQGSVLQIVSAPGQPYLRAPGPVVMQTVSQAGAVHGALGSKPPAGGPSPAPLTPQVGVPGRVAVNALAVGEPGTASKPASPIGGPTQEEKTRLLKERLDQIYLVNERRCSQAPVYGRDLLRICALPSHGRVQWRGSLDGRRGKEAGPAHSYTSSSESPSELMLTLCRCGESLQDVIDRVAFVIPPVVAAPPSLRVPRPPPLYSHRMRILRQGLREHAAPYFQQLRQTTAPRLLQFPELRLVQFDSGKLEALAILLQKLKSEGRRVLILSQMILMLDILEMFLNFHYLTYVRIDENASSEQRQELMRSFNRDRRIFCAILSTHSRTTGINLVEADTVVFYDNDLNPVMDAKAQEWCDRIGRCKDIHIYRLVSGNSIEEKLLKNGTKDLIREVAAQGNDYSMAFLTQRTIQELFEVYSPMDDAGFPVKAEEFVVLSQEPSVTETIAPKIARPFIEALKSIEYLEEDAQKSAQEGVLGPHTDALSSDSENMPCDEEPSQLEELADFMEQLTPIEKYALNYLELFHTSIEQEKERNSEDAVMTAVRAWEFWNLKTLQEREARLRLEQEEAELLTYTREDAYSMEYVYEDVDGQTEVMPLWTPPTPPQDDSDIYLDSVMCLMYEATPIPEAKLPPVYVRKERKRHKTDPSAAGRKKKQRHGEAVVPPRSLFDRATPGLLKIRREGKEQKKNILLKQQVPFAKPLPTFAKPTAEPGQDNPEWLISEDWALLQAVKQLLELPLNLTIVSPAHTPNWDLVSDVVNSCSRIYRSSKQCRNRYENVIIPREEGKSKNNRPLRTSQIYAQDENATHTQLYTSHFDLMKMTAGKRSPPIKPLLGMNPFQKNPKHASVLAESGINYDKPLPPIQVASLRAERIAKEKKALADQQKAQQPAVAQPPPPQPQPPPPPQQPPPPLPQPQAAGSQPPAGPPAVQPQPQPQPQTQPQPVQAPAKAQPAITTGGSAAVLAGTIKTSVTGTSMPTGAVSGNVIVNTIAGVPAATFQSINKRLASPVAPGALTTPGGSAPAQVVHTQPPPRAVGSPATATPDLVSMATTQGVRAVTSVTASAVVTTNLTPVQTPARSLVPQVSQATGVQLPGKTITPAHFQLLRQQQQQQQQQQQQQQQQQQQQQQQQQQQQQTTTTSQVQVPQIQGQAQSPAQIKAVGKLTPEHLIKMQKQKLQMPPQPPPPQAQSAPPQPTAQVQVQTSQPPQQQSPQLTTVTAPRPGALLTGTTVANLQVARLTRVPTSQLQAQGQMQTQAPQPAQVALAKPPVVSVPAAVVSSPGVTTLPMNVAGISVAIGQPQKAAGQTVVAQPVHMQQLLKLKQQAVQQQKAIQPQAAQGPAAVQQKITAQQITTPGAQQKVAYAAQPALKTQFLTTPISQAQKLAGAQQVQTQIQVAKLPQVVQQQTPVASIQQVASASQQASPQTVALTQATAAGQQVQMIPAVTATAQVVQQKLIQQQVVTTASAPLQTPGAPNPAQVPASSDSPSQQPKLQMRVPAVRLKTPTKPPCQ
UniProt O43402: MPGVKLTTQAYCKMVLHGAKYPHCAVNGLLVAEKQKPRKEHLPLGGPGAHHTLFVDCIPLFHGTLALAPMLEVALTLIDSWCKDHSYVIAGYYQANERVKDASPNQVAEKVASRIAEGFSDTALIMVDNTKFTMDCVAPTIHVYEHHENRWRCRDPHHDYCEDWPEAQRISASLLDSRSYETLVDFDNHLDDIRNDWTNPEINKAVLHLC
UniProt Q9NVI1: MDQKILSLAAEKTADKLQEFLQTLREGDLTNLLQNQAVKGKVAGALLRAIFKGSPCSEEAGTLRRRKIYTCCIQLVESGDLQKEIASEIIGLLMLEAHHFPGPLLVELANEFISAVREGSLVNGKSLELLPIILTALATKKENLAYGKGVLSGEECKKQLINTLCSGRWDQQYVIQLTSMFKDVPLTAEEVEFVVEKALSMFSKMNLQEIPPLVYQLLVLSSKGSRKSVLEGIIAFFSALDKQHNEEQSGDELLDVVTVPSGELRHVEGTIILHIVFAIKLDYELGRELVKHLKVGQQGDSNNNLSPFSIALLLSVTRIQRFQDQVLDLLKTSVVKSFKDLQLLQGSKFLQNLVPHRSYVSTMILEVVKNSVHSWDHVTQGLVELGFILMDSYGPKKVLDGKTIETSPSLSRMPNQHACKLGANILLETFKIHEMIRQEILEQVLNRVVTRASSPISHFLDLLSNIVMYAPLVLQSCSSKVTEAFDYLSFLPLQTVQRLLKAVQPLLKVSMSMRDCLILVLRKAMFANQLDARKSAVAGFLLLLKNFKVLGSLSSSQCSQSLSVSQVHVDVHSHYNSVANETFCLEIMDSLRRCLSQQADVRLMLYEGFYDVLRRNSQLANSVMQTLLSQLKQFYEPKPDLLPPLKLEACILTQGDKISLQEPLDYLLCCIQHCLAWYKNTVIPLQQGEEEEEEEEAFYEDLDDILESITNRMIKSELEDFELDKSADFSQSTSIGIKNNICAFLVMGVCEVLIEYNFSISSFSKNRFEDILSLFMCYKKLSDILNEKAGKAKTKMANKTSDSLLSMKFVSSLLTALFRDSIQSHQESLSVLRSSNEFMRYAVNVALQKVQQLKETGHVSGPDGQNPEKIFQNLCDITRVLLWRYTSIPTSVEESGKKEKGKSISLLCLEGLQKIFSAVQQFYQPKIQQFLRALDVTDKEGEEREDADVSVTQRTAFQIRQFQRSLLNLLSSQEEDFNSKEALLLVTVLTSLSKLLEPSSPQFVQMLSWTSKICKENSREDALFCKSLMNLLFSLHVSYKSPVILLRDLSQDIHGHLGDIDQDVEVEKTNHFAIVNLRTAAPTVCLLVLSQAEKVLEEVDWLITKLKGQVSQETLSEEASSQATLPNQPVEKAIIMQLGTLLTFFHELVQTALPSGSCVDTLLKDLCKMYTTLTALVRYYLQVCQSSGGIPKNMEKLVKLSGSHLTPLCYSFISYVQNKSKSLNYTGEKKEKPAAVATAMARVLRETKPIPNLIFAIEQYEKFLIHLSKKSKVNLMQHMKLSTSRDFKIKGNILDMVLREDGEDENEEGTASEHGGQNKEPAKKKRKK
UniProt Q9UBU6, 75-102: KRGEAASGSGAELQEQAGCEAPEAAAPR
UniProt Q56NI9: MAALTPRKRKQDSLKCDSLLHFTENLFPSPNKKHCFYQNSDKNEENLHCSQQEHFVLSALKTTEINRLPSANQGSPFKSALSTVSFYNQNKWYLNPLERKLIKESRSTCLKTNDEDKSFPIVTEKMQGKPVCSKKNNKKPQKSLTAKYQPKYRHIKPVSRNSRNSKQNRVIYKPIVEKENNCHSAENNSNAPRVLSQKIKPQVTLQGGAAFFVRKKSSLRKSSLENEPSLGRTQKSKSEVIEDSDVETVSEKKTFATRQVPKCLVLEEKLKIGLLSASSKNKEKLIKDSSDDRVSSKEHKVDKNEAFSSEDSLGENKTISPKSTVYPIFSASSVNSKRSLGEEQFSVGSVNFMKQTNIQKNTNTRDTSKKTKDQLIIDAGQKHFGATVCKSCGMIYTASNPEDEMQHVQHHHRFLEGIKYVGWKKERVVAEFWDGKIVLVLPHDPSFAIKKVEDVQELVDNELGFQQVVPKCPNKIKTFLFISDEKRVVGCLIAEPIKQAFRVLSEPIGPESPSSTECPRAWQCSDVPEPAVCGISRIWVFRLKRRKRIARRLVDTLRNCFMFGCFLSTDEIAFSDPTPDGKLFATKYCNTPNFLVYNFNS
UniProt Q96EK7: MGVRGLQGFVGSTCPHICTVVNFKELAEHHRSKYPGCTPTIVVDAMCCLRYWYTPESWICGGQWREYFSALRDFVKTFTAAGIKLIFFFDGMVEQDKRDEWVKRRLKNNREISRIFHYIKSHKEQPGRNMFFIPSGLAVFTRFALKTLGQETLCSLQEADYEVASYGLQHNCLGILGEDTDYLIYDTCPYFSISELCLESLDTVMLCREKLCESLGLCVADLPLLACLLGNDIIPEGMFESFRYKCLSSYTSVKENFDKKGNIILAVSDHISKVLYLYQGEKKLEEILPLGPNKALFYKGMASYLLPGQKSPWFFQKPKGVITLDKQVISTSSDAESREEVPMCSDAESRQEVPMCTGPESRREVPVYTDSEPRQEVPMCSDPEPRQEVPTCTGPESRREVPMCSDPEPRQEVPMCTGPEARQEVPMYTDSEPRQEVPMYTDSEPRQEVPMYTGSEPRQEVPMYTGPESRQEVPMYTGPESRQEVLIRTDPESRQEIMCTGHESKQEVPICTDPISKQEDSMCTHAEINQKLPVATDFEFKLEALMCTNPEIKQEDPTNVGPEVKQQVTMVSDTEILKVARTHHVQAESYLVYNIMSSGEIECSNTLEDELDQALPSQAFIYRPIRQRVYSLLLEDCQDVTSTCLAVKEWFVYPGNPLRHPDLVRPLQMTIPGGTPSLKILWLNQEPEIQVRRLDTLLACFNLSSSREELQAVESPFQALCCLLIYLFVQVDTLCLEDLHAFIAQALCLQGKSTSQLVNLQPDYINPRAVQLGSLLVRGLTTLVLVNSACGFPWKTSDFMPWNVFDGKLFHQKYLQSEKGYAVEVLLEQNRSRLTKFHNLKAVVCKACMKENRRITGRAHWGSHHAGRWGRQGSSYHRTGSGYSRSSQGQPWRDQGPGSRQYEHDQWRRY

Compound: ClCC(=O)N[C@H]1CCCc2ccccc12
Experiment: log2 mean competition ratio of IA-DTB cysteine labelling (DMSO/compound) (log2 ratio); higher = stronger cysteine engagement by compound
Conditions: 50 µM; treatment time: 4 h; cell line lysate: HEK293T
Protocol: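 IA-DTB competitive cysteine chemoproteomics in HEK293T RIPA lysate. Lysates were treated with compound 29 or 30 at 50 or 200 µM for 4 h, then IA-DTB (500 µM, 1 h), trypsin-digested, NeutrAvidin-enriched and analysed by diaPASEF. Competition ratio = intensity DMSO / intensity compound (n=4 treated, n=64 DMSO); binding: mean log2 CR ≥ 1 and p ≤ 0.05 plus QC filters. Target is the cysteine site.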

Target	log2 mean competition ratio
EXOC6 C28 (UniProt Q8TAG9)	0.0203
EXOC5 C295 (UniProt O00471)	-0.0368
EXOSC10 C411 (UniProt Q01780)	-0.237
EP400 C1368 (UniProt Q96L91)	-0.0454
ELP1 C213 (UniProt O95163)	0.3
EMC8 C12 (UniProt O43402)	-0.0205
ENO3 C357	-0.19
ERCC6L C982 (UniProt Q2NKX8)	0.145
EPPK1 C2225(C2761)(C3292)(C3826)(C4360)(C4893) (UniProt P58107)	-0.557
ERCC2 C588 (UniProt P18074)	-0.221
EME1 C369 (UniProt Q96AY2)	-0.184
FANCI C1085 (UniProt Q9NVI1)	0.118
FAM8A1 C93 (UniProt Q9UBU6)	-0.27
ELMO1 C411 (UniProt Q92556)	0.0767
ESCO2 C518 (UniProt Q56NI9)	0.0709
FAM117B C244 (UniProt Q6P1L5)	0.246
FAM120B C392 (UniProt Q96EK7)	-0.132
FAM126B C7 (UniProt Q8IXS8)	-0.00287
FAM110B C248	0.0398
FAM126A C300 (UniProt Q9BYI3)	-0.1

Same assay, conditions: 200 µM; treatment time: 4 h; cell line lysate: HEK293T

Target	log2 mean competition ratio
EXOC6 C28 (UniProt Q8TAG9)	0.0386
EXOC5 C295 (UniProt O00471)	0.0869
EXOSC10 C411 (UniProt Q01780)	-0.239
EP400 C1368 (UniProt Q96L91)	-0.267
ELP1 C213 (UniProt O95163)	-0.193
EMC8 C12 (UniProt O43402)	-0.0907
ENO3 C357	0.0297
ERCC6L C982 (UniProt Q2NKX8)	-0.048
EPPK1 C2225(C2761)(C3292)(C3826)(C4360)(C4893) (UniProt P58107)	0.102
ERCC2 C588 (UniProt P18074)	-0.0733
EME1 C369 (UniProt Q96AY2)	-0.188
FANCI C1085 (UniProt Q9NVI1)	-0.375
FAM8A1 C93 (UniProt Q9UBU6)	-0.208
ELMO1 C411 (UniProt Q92556)	0.685
ESCO2 C518 (UniProt Q56NI9)	0.159
FAM117B C244 (UniProt Q6P1L5)	0.14
FAM120B C392 (UniProt Q96EK7)	0.157
FAM126B C7 (UniProt Q8IXS8)	0.136
FAM110B C248	0.0168
FAM126A C300 (UniProt Q9BYI3)	-0.0418
